Reference: patent US20220160617A1, “COMPOSITIONS AND METHODS FOR IMPROVING SKIN HEALTH AND FOR THE TREATMENT AND PREVENTION OF DISEASES, DISORDERS AND CONDITIONS ASSOCIATED WITH PATHOGENIC MICROBES” (DermBiont, Inc., priority 2019, published 2022)
At least one structure is not confirmed: it was looked up by name or label, or the drawing left a doubt.

Tests used:
[1] = tested on: E. Coli ATCC25922; details: cited from earlier work
[2] = tested on: Janthinobacterium lividum strains; assay: Antibiotic MIC tests, sensitivity summary; type: cell-based
Method: The antibiotic resistance profile and MICs tests were performed using Janthinobacterium lividum grown from cultures purified and grown in vegitone LB broth.

[3] = tested on: Janthinobacterium lividum strains; assay: Internal antibiotic resistance test (BD BBL Sensi-Disc zone of inhibition); type: cell-based; details: all 5 strains; disc content per antibiotic
Method: One Janthinobacterium lividum colony of 3-day old grown in 50% BHI agar was mixed well in 1 ml of 1×PBS buffer, diluted 10× and 100×, respectively. 200 μl of diluted Janthinobacterium lividum cells were evenly plated onto R2A/BHI agar plates in triplicate in 150 mm petri dishes. Antibiotic discs (BD BBL Sensi-Disc antimicrobial susceptibility test discs) were dispensed using a Disc dispenser (BD BBL Sensi-Disc Designer Dispenser System, 12-Place). Plates were incubated for 2-3 days at room temperature and imaged at the end of incubation.
The sensitivity of Janthinobacterium lividum to antibiotics is reflected by a clear zone of inhibition of Janthinobacterium lividum cells surrounding the antibiotic discs. The zone of inhibition was measured using ImageJ and was transformed into cm for analysis.

Structure (SMILES) | MIC, CLSI QC ranges [1] | sensitivity of Janthinobacterium lividum strains to antibiotic [2] | sensitivity of Janthinobacterium lividum to antibiotic disc [3]
C[C@H]1COc2c(N3CCN(C)CC3)c(F)cc3c(=O)c(C(=O)O)cn1c23 [Levofloxacin] | 0.008 to 0.06 µg/mL |  | 
CCC[C@@H]1C[C@@H](C(=O)N[C@@H]([C@H]2O[C@H](SC)[C@H](O)[C@@H](O)[C@H]2O)[C@H](C)Cl)N(C)C1 [Clindamycin] |  | less sensitive | 
CN(C)c1ccc(O)c2c1C[C@H]1C[C@H]3[C@H](N(C)C)C(O)=C(C(N)=O)C(=O)[C@@]3(O)C(O)=C1C2=O [Minocycline] | 0.25 to 1 µg/mL |  | 
C[C@H]1c2cccc(O)c2C(=O)C2=C(O)[C@]3(O)C(=O)C(C(N)=O)=C(O)[C@@H](N(C)C)[C@@H]3[C@@H](O)[C@@H]21 [doxycycline] |  |  | sensitive
CN(C)[C@@H]1C(O)=C(C(N)=O)C(=O)[C@@]2(O)C(O)=C3C(=O)c4c(O)cccc4[C@@](C)(O)[C@H]3C[C@@H]12 [Tetracycline] | 0.5 to 2 µg/mL |  | sensitive
